In the supplement of paper PMC12819154, “High-throughput peptide-centric local stability assay extends protein–ligand identification to membrane proteins, tissues and bacteria” (Nature Structural & Molecular Biology, 2025):
This is one part of the list. Most entries show no effect beyond the scatter of the controls.

Amino acid sequences for entries named in this document (tags omitted). A change or cut given only in a name is not applied to a line headed by its entry.
UniProt Q15022: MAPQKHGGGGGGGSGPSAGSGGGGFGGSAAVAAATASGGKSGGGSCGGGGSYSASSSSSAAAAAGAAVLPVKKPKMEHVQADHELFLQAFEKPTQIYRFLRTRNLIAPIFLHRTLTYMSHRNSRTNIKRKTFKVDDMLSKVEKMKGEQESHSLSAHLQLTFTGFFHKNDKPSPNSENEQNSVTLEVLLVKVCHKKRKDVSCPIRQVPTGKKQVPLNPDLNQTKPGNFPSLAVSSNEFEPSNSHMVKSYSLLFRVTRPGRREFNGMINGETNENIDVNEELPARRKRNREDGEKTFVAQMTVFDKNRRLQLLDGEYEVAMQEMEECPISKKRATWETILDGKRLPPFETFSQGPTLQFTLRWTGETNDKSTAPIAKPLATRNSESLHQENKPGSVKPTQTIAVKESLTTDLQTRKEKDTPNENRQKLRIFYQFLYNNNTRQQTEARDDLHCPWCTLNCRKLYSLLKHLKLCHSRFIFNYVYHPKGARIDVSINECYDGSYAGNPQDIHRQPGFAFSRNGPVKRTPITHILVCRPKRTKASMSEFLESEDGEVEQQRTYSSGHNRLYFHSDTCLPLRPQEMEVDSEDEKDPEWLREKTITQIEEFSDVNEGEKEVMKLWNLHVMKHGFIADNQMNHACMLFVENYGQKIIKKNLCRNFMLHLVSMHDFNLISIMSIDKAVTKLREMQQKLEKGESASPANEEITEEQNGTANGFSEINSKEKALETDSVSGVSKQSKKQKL
UniProt Q13303: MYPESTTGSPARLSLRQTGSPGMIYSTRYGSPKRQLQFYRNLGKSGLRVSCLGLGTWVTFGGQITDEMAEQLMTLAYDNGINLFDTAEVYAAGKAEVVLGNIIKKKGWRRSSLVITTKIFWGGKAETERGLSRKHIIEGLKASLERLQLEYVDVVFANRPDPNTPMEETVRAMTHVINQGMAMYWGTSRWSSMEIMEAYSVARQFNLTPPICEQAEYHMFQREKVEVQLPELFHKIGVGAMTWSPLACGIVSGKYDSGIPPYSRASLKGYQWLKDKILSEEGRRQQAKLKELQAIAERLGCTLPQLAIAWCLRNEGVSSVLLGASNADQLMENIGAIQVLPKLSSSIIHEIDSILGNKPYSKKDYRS
UniProt Q14789: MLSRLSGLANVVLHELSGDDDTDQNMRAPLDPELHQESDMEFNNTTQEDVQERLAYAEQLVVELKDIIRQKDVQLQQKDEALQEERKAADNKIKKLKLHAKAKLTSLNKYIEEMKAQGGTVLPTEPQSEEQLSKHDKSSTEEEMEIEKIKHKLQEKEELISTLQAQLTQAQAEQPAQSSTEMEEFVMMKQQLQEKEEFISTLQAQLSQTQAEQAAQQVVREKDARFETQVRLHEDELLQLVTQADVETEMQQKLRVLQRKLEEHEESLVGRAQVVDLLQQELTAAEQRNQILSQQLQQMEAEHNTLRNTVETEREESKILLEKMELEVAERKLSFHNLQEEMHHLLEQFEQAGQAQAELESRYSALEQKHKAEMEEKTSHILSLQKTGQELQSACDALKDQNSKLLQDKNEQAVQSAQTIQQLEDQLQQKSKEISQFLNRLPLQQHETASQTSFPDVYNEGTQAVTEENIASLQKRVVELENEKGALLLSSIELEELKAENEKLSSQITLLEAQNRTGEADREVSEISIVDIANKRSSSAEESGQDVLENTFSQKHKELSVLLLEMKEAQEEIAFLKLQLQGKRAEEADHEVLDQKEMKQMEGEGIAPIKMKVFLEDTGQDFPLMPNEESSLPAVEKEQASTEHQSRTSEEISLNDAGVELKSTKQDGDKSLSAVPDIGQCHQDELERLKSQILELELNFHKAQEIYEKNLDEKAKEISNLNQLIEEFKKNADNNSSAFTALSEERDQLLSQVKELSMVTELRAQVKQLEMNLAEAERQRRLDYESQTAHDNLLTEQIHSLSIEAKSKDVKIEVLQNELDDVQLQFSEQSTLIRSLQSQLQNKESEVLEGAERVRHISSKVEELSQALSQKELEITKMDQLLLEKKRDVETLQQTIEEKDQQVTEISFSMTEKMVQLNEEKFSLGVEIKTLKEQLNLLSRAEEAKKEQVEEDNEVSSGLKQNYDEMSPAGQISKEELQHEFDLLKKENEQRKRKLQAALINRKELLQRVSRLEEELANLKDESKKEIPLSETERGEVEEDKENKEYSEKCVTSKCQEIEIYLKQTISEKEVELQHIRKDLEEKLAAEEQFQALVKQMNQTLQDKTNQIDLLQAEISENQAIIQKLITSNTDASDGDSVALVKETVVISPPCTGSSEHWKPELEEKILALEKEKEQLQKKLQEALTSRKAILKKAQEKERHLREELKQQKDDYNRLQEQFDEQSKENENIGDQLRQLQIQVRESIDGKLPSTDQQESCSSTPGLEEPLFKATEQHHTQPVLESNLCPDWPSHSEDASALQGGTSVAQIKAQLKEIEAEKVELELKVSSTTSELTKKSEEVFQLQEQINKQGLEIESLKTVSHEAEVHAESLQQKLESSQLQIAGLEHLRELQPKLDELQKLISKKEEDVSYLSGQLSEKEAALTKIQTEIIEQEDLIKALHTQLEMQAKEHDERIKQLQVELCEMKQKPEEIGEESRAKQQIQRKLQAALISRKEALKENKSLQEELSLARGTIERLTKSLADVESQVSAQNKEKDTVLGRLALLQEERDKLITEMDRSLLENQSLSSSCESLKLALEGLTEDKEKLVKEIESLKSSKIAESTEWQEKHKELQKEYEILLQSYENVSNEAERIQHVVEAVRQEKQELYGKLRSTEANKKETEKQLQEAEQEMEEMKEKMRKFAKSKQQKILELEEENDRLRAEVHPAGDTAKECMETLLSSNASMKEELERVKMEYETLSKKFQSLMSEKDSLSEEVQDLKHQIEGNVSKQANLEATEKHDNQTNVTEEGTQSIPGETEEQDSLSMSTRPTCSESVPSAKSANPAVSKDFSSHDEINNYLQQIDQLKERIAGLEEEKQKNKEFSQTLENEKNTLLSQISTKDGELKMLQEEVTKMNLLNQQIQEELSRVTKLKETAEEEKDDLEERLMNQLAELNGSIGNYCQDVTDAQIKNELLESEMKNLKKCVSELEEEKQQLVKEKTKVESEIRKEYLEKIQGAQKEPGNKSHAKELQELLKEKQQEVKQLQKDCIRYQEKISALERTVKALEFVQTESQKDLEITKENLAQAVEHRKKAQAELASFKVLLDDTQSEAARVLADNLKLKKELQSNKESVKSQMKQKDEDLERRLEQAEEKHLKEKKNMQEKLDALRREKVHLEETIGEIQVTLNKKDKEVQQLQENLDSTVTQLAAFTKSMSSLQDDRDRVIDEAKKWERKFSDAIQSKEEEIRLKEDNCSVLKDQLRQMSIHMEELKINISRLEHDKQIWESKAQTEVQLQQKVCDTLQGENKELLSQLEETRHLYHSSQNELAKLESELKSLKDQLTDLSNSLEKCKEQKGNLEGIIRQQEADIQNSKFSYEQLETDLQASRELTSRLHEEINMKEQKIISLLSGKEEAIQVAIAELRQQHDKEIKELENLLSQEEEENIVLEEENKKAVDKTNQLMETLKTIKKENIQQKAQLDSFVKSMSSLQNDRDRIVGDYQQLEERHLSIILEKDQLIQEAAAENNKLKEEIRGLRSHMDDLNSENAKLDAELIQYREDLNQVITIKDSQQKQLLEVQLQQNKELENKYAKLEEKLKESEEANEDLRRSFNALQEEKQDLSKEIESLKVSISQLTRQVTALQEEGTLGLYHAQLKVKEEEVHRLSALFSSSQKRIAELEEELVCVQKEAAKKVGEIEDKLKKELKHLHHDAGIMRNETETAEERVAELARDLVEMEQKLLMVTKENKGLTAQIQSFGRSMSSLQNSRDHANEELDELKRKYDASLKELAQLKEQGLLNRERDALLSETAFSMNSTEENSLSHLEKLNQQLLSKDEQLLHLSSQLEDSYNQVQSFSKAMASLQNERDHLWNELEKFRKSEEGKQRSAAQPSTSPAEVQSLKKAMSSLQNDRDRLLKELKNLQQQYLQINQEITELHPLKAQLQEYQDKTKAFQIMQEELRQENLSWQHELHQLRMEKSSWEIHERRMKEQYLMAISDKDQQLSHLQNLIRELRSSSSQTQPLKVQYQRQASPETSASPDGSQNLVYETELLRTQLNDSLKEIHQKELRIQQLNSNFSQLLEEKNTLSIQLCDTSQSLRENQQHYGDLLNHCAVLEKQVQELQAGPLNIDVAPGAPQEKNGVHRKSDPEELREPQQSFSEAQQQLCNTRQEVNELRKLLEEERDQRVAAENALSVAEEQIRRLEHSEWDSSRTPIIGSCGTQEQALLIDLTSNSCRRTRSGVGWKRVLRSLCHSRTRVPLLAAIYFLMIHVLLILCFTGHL
UniProt Q13164: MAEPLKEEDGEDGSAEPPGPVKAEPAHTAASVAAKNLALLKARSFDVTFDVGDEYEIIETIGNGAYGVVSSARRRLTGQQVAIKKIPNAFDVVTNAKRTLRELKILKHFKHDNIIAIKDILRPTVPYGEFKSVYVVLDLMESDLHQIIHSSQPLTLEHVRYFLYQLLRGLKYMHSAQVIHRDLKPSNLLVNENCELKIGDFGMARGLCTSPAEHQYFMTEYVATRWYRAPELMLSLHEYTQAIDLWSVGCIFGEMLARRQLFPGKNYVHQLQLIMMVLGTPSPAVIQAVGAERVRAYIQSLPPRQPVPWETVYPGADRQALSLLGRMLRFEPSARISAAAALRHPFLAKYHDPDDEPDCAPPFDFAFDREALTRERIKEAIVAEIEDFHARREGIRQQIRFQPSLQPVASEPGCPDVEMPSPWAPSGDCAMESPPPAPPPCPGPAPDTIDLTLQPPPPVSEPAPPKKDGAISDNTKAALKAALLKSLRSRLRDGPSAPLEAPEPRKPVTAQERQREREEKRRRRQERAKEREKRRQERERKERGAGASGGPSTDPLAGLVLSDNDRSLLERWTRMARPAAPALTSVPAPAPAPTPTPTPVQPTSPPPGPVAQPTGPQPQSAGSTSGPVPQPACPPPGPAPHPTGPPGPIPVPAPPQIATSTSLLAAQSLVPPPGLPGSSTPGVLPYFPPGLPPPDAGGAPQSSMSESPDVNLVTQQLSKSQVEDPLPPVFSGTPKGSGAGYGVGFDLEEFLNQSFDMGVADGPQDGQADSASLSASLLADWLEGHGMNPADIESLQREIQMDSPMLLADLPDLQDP
UniProt Q14596: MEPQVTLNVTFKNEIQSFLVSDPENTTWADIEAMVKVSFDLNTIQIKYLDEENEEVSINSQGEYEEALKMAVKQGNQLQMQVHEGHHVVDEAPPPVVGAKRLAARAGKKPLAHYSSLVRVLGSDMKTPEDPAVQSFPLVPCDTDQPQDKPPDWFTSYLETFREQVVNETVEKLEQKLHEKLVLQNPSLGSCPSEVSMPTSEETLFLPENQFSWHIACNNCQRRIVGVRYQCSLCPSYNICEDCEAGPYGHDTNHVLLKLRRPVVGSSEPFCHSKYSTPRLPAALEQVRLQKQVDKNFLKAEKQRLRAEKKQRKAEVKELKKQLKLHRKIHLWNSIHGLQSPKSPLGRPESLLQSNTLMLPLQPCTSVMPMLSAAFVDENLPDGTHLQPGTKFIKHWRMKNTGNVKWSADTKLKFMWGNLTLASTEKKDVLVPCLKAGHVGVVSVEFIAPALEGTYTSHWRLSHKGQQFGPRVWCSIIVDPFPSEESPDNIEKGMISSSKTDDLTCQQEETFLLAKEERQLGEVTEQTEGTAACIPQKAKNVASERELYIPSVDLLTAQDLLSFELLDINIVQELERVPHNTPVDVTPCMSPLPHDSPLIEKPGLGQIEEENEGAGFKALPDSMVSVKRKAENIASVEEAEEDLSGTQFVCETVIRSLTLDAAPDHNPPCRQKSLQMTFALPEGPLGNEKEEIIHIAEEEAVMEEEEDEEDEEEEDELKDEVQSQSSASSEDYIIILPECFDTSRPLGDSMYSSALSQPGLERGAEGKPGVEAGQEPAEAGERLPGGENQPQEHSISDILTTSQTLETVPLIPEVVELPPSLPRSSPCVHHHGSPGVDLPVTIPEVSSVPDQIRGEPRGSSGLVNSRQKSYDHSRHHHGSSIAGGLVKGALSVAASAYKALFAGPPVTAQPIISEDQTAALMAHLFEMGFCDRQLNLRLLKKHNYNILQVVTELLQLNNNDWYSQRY

Compound: CN[C@@H]1C[C@H]2O[C@@](C)([C@@H]1OC)n1c3ccccc3c3c4c(c5c6ccccc6n2c5c31)C(=O)NC4 [staurosporine]
Test: log2 fold change of tryptic peptide abundance, ligand vs vehicle (limited proteolysis) (log2 ratio); higher = more trypsin-susceptible (destabilized)
Details: ligand concentration: 20 uM; sample: K562 cleared lysate; digestion: 4 min, 22 C (HT-PELSA RT4min, Orbitrap Astral)

Target | log2 fold change
SUZ12 (peptide sequence: TLTYMSHR, peptide start residue: 114) (UniProt Q15022) | 0.225
RRP1B (peptide sequence: GSPTGGAQLLK, peptide start residue: 512) (UniProt Q14684) | -0.167
KCNAB2 (peptide sequence: MYPESTTGSPAR, peptide start residue: 1) (UniProt Q13303) | -0.364
GOLGB1 (peptide sequence: GLTAQIQSFGR, peptide start residue: 2728) (UniProt Q14789) | -0.366
NPAT (peptide sequence: SSQLLSQDTSLTGKPSKK, peptide start residue: 530) (UniProt Q14207) | -0.536
UniProt Q13164 (peptide sequence: LTGQQVAIK, peptide start residue: 76) | -0.642
KEAP1 (peptide sequence: CKDYLVK, peptide start residue: 297) (UniProt Q14145) | 0.245
NBR1 (peptide sequence: SLTLDAAPDHNPPCR, peptide start residue: 656) (UniProt Q14596) | -0.36
